Data as given in PubChem BioAssay AID1259405 (NCATS, 2018).
Here is an unselected part of about 50,000 reagents tested. About 4,000 of all reagents (8%) count as active. 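Mouse siRNA library applied to hamster cells; one well for each siRNA.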 Reagents against one gene are numbered here. Reagent sequences are not shown.

- Purpose: 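Silenced genes that increase secreted GFP made by CHO cells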 (primary screen)
- Cell system: Chinese hamster CHO-K1 ovary cells with stable secreted eGFP expression
- Reagent: single siRNA against mouse genes, 0.8 pmol siRNA per well (2 µl of 400 nM stock)
- Time to read-out: 3 days
- Read-out: 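Per-well intracellular GFP measured by laser scanning cytometry, plus viability from ATP luminescence, each relative to plate median of non-targeting control wells, in %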
- Scale: GFP, % of control: higher = more GFP per well, higher productivity; viability (ATP), % of control: higher = more viable cells (more ATP)
- Hit rule: 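a knock-down is called active if GFP reaches 120% or more of non-targeting control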

no.	Gene	siRNA no.	GFP, % of control	viability (ATP), % of control	Outcome
1	Denr (density-regulated protein)	1	53.9	71.3	inactive
2	Denr (density-regulated protein)	2	17.9	30.1	inactive
3	Denr (density-regulated protein)	3	76.3	72.4	inactive
4	Olfm4 (olfactomedin 4)	1	38.3	54.2	inactive
5	Olfm4 (olfactomedin 4)	2	57	82.8	inactive
6	Olfm4 (olfactomedin 4)	3	37.5	33.4	inactive
7	Gna15 (guanine nucleotide binding protein, alpha 15)	1	116	93.4	inactive
8	Gna15 (guanine nucleotide binding protein, alpha 15)	2	69.2	51.4	inactive
9	Gna15 (guanine nucleotide binding protein, alpha 15)	3	80.5	75.7	inactive
10	Ckmt2 (creatine kinase, mitochondrial 2)	1	70.9	72.4	inactive
11	Gpihbp1 (GPI-anchored HDL-binding protein 1)	1	90.3	66.3	inactive
12	Gpihbp1 (GPI-anchored HDL-binding protein 1)	2	47	32.1	inactive
13	Gpihbp1 (GPI-anchored HDL-binding protein 1)	3	88.1	46.2	inactive
14	Tor2a (torsin family 2, member A)	1	147	116	active
15	Tor2a (torsin family 2, member A)	2	85	91.1	inactive
16	Tor2a (torsin family 2, member A)	3	101	97.7	inactive
17	Polr2d (polymerase (RNA) II (DNA directed) polypeptide D)	1	60.3	45.5	inactive
18	Polr2d (polymerase (RNA) II (DNA directed) polypeptide D)	2	97.3	89.5	inactive
19	Ablim3 (actin binding LIM protein family, member 3)	1	85.1	83.4	inactive
20	Ablim3 (actin binding LIM protein family, member 3)	2	82.2	82.5	inactive
21	Nsf (N-ethylmaleimide sensitive fusion protein)	1	124	105	active
22	Nsf (N-ethylmaleimide sensitive fusion protein)	2	121	76.5	active
23	Nsf (N-ethylmaleimide sensitive fusion protein)	3	89	79.6	inactive
24	Ndufs1 (NADH:ubiquinone oxidoreductase core subunit S1)	1	59.2	51.6	inactive
25	Ndufs1 (NADH:ubiquinone oxidoreductase core subunit S1)	2	87.4	69.3	inactive
26	Ndufs1 (NADH:ubiquinone oxidoreductase core subunit S1)	3	60.1	68.8	inactive
27	Pantr1	1	83.6	59.5	inactive
28	Pantr1	2	69.3	71.9	inactive
29	Pantr1	3	91.9	100	inactive
30	R74862 (expressed sequence R74862)	1	36.3	50.7	inactive
31	R74862 (expressed sequence R74862)	2	82.1	77.8	inactive
32	R74862 (expressed sequence R74862)	3	37.2	52.7	inactive
33	Tubgcp2 (tubulin, gamma complex component 2)	1	96.8	77.5	inactive
34	Tubgcp2 (tubulin, gamma complex component 2)	2	67.9	75.2	inactive
35	Tubgcp2 (tubulin, gamma complex component 2)	3	88.1	80.4	inactive
36	Or4p18 (olfactory receptor family 4 subfamily P member 18)	1	68.3	78.2	inactive
37	Or4p18 (olfactory receptor family 4 subfamily P member 18)	2	79.2	83	inactive
38	Or4p18 (olfactory receptor family 4 subfamily P member 18)	3	48.8	67.6	inactive
39	Zkscan17 (zinc finger with KRAB and SCAN domains 17)	1	143	92	active
40	Zkscan17 (zinc finger with KRAB and SCAN domains 17)	2	82.6	96.8	inactive
41	Zkscan17 (zinc finger with KRAB and SCAN domains 17)	3	73.9	110	inactive
42	Cmpk2 (cytidine/uridine monophosphate kinase 2)	1	40.1	49.1	inactive
43	Cmpk2 (cytidine/uridine monophosphate kinase 2)	2	50.3	57.7	inactive
44	Cmpk2 (cytidine/uridine monophosphate kinase 2)	3	116	100	inactive
45	Mrpl2 (mitochondrial ribosomal protein L2)	1	52.2	54.4	inactive
46	Mrpl2 (mitochondrial ribosomal protein L2)	2	79.2	46	inactive
47	Mrpl2 (mitochondrial ribosomal protein L2)	3	105	85.3	inactive
48	Irgc (immunity related GTPase cinema)	1	89.3	76.1	inactive
49	Irgc (immunity related GTPase cinema)	2	78.4	58.4	inactive
50	Irgc (immunity related GTPase cinema)	3	61	52.8	inactive
51	Ceacam12 (CEA cell adhesion molecule 12)	1	91.1	74.9	inactive
52	Ceacam12 (CEA cell adhesion molecule 12)	2	85	70.2	inactive
53	Ceacam12 (CEA cell adhesion molecule 12)	3	80	63.2	inactive
54	Krtap12-1 (keratin associated protein 12-1)	1	64.3	79.8	inactive
55	Krtap12-1 (keratin associated protein 12-1)	2	61.9	58.8	inactive
56	Krtap12-1 (keratin associated protein 12-1)	3	110	81.7	inactive
57	Bend3 (BEN domain containing 3)	1	138	76.6	active
58	Bend3 (BEN domain containing 3)	2	79.4	96.1	inactive
59	Bend3 (BEN domain containing 3)	3	104	102	inactive
60	Oog3 (oogenesin 3)	1	60.8	56.7	inactive
61	Oog3 (oogenesin 3)	2	42.2	52.1	inactive
62	Oog3 (oogenesin 3)	3	52.9	50.1	inactive
63	Pcdha5 (protocadherin alpha 5)	1	118	93.8	inactive
64	Pcdha5 (protocadherin alpha 5)	2	68.7	59.2	inactive
65	Pcdha5 (protocadherin alpha 5)	3	83.6	78.3	inactive
66	Snx24 (sorting nexing 24)	1	62.4	53	inactive
67	Snx24 (sorting nexing 24)	2	64.4	73.1	inactive
68	Snx24 (sorting nexing 24)	3	72.8	59	inactive
69	Atp11a (ATPase, class VI, type 11A)	1	53.5	40.7	inactive
70	Atp11a (ATPase, class VI, type 11A)	2	31.7	61.1	inactive
71	Atp11a (ATPase, class VI, type 11A)	3	43	63.4	inactive
72	Wsb2 (WD repeat and SOCS box-containing 2)	1	73.3	69.4	inactive
73	Wsb2 (WD repeat and SOCS box-containing 2)	2	64	45.1	inactive
74	Wsb2 (WD repeat and SOCS box-containing 2)	3	56.8	76.3	inactive
75	Sgf29 (SAGA complex associated factor 29)	1	92.8	108	inactive
76	Sgf29 (SAGA complex associated factor 29)	2	101	76.7	inactive
77	Sgf29 (SAGA complex associated factor 29)	3	51.8	72.1	inactive
78	Kif18b (kinesin family member 18B)	1	38.8	53.1	inactive
79	Kif18b (kinesin family member 18B)	2	63.2	87.2	inactive
80	Kif18b (kinesin family member 18B)	3	58.8	79.6	inactive
81	Pzp2 (PZP alpha-2-macroglobulin like 2)	1	58.9	51.9	inactive
82	Pzp2 (PZP alpha-2-macroglobulin like 2)	2	75.9	61	inactive
83	Pzp2 (PZP alpha-2-macroglobulin like 2)	3	63.6	92.3	inactive
84	Rtn2 (reticulon 2 (Z-band associated protein))	1	99	88.2	inactive
85	Rtn2 (reticulon 2 (Z-band associated protein))	2	27.3	12.2	inactive
86	Rtn2 (reticulon 2 (Z-band associated protein))	3	52.9	58.3	inactive

Only “GFP, % of control”, for 10 of the entries above:
Ablim3 (actin binding LIM protein family, member 3) #1 = 85.1
Ablim3 (actin binding LIM protein family, member 3) #2 = 82.2
Nsf (N-ethylmaleimide sensitive fusion protein) #1 = 124
Nsf (N-ethylmaleimide sensitive fusion protein) #2 = 121
Nsf (N-ethylmaleimide sensitive fusion protein) #3 = 89
Ndufs1 (NADH:ubiquinone oxidoreductase core subunit S1) #1 = 59.2
Ndufs1 (NADH:ubiquinone oxidoreductase core subunit S1) #2 = 87.4
Ndufs1 (NADH:ubiquinone oxidoreductase core subunit S1) #3 = 60.1
Pantr1 #1 = 83.6
Pantr1 #2 = 69.3
